According to the supplement of paper PMC10849652:
This is one part of the list. Residues, ends and D or L forms follow the SMILES beside them. *: point of attachment. Cbz = O=C(OCc1ccccc1)*

Protein sequences, listed by entry. Tags and fused reporters are not part of them. Lines headed by an entry give the natural chain unless they say otherwise; changes in a name come on top.
UniProt Q96SI9: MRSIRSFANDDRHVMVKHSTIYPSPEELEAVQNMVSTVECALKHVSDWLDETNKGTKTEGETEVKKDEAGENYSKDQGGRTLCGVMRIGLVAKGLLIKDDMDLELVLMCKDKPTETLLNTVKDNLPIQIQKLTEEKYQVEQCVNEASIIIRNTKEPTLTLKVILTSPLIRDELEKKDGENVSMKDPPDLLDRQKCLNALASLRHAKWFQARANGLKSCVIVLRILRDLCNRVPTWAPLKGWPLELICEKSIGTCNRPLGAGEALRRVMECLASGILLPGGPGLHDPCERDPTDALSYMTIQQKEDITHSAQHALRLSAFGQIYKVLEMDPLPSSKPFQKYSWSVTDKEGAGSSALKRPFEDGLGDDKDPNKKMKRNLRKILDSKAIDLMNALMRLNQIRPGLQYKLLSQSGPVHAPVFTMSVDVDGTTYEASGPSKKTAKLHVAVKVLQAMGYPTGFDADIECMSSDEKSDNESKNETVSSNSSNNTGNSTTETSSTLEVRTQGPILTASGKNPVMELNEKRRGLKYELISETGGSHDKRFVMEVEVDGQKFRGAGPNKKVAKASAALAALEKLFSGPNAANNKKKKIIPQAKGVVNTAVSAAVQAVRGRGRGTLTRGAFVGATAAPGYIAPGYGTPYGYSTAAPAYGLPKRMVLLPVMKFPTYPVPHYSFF
UniProt O00268, whole entry, looked up: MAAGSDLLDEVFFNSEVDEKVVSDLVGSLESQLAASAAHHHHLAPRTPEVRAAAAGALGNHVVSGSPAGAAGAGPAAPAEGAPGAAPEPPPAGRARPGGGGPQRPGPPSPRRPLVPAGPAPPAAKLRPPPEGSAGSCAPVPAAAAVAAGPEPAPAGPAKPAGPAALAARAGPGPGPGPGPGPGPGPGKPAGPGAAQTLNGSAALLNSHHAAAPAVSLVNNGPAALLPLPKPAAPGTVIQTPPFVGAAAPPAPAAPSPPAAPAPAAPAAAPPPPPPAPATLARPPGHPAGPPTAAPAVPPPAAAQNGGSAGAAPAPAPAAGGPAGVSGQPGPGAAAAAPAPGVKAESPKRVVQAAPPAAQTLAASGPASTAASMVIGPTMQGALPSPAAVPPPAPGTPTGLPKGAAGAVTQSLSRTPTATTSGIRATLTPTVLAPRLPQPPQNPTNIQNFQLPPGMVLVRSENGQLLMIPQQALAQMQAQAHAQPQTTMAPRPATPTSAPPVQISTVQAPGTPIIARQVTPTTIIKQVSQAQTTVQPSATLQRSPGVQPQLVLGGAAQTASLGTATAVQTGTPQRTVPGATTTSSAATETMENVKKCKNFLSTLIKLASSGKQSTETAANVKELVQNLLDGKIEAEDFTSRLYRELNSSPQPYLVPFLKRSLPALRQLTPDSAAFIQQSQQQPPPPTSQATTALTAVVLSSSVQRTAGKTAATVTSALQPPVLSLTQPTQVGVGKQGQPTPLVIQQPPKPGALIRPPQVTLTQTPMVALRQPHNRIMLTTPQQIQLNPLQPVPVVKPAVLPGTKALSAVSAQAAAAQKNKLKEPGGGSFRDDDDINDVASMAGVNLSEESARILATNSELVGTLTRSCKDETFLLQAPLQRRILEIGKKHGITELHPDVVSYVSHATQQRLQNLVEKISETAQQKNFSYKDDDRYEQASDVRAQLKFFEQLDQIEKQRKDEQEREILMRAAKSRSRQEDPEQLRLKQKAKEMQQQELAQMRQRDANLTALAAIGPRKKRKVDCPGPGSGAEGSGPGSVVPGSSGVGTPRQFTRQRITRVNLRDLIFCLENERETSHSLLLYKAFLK
UniProt Q13033: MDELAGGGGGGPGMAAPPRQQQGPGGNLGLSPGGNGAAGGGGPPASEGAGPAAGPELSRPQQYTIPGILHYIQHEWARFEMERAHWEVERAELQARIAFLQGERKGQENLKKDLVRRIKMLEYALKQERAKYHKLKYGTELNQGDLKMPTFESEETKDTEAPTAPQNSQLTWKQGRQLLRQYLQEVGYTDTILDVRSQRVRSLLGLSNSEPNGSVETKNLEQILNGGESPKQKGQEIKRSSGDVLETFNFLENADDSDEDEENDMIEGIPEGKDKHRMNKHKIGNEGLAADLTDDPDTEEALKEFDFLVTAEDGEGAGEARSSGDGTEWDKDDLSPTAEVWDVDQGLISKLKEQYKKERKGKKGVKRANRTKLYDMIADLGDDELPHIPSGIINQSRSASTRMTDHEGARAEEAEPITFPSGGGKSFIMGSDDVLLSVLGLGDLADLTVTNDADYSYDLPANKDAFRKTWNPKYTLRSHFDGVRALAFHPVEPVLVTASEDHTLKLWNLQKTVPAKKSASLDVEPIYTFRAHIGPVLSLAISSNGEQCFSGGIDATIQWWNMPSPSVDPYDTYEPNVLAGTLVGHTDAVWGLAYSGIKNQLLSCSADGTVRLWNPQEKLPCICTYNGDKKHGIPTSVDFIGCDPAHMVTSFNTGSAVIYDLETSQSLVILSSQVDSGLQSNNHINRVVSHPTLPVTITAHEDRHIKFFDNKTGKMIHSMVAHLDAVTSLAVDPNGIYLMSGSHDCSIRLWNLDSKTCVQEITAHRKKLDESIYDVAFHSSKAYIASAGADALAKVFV
UniProt Q9Y2Z0: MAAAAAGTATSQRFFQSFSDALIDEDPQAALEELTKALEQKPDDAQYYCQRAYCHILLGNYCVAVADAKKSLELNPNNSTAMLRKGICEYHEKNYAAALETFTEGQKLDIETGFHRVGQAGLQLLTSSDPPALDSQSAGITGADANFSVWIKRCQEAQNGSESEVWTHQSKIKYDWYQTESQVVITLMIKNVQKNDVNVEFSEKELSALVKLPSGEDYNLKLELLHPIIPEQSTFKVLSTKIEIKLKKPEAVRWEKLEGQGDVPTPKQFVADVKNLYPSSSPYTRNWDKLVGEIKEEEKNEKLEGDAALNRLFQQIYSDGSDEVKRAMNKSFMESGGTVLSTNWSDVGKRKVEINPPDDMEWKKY
UniProt Q9NZ72: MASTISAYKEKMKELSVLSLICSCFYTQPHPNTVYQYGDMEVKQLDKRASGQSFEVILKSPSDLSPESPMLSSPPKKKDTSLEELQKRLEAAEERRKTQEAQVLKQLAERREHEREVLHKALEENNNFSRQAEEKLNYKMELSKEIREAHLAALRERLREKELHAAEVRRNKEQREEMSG
UniProt Q15526: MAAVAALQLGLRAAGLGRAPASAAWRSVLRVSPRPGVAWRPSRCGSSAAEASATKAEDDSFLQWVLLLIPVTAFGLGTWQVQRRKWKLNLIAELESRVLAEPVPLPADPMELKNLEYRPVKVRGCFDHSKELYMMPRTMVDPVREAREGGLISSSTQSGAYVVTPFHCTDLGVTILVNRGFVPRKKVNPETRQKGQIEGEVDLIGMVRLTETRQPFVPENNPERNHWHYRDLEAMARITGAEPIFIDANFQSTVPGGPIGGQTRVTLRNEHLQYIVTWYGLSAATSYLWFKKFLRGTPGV
UniProt Q7RTN6: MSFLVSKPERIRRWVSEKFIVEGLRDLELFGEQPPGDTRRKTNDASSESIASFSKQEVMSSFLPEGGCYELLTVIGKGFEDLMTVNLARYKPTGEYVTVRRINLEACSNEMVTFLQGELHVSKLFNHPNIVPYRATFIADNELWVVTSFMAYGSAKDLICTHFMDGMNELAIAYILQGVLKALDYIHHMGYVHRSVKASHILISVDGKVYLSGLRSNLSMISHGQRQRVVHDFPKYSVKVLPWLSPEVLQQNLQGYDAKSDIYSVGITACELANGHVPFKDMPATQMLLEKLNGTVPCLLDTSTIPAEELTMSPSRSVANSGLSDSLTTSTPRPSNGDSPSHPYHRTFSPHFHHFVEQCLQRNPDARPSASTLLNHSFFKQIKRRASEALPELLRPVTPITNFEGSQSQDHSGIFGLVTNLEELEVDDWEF
UniProt Q16563: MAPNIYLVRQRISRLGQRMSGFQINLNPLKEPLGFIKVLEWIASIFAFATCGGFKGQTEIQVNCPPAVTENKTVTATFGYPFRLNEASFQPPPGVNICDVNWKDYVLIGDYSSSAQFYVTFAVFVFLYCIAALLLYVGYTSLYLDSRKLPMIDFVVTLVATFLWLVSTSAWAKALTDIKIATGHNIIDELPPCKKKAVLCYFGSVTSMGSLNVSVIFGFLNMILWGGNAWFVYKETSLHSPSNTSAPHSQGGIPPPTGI
UniProt Q92844: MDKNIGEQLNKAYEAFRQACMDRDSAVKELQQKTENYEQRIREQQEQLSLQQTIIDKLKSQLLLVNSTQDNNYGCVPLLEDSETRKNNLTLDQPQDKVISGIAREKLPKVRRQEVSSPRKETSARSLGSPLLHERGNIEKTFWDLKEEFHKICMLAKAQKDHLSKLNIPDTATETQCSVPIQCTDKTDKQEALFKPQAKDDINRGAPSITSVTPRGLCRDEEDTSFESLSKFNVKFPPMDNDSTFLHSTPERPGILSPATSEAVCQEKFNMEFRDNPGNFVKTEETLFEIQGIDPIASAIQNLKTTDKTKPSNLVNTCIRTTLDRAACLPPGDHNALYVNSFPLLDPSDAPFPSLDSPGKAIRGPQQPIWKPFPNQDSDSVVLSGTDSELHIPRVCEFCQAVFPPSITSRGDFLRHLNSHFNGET
UniProt Q13190: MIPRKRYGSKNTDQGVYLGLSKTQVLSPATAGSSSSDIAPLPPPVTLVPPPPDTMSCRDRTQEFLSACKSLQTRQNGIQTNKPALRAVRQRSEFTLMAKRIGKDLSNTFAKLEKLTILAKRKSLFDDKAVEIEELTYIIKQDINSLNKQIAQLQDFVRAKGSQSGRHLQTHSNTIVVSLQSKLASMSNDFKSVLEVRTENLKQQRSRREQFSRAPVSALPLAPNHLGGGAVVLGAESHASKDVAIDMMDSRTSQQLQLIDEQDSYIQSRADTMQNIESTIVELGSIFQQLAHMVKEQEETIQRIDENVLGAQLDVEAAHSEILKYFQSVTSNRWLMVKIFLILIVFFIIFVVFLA
UniProt O15400: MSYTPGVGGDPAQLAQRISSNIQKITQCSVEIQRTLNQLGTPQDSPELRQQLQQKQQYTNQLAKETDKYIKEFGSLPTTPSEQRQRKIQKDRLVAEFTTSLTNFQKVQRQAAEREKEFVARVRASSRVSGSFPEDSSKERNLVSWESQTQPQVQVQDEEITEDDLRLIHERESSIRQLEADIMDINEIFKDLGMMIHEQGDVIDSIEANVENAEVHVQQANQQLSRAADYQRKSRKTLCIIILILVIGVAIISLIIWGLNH
UniProt Q9Y3F4: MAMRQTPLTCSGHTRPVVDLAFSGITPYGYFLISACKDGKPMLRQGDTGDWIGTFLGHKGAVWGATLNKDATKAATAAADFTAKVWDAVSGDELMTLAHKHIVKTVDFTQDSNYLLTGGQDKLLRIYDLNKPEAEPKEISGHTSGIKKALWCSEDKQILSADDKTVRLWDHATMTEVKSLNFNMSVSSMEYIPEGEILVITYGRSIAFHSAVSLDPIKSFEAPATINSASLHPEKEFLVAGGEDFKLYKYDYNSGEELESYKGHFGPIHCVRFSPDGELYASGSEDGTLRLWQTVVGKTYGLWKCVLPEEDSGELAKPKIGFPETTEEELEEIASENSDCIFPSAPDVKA
UniProt Q5VSL9: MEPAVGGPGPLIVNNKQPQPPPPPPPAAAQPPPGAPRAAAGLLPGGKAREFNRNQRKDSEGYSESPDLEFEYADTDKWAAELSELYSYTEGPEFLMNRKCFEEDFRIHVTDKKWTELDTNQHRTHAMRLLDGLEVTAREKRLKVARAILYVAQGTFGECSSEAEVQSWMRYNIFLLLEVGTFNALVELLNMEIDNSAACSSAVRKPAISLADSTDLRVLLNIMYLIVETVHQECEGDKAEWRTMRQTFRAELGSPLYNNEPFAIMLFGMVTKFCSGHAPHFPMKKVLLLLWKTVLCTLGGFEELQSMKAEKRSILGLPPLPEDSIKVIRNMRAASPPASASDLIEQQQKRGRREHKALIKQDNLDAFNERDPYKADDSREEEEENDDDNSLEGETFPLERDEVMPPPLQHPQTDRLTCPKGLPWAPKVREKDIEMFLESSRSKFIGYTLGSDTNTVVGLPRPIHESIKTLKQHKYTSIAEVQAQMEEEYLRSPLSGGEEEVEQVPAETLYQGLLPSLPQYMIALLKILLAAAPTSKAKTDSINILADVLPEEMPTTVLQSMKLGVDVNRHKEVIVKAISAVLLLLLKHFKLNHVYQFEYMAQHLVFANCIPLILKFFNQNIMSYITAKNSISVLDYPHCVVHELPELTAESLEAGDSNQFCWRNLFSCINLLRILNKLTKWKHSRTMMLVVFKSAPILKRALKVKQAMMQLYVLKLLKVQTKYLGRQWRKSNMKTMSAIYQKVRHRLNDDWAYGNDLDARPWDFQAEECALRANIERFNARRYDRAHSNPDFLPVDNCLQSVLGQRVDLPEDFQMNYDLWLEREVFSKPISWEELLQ

Legend:
Experiment in all cases: log2 fold change, soluble protein after heating vs DMSO (PISA); higher = thermal stabilisation; K562 cells, 10 uM, 30 min; active = over 0.2 and 3.5 SD of the protein, either way, in both replicates (recomputed)
IRAK-1-4 Inhibitor I = compound: C1COCCN1CCN2C3=CC=CC=C3N=C2NC(=O)C4=CC(=CC=C4)[N+](=O)[O-] [IRAK-1-4 Inhibitor I]
Procedure, shortened: (§1)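 For each measurement, 10 μM compound was applied for 30 min to K562 cells at 2×10^6 cells/mL. Aliquots were heated for 3 min across 48°C-58°C, pooled, and extracted in PBS with 0.5% NP-40 at 4°C; the supernatant after 21,000xg for 90 min was soluble protein. This was quantified by TMTpro 16plex LC-MS/MS with channel sums equalised, and thermal stability was reported relative to control samples from duplicates, on a log2 fold-change scale.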

ibrutinib = compound: C=CC(=O)N1CCC[C@@H](n2nc(-c3ccc(Oc4ccccc4)cc3)c3c(N)ncnc32)C1 [ibrutinib]
Procedure, shortened: as §1

[1] = compound: CC(=O)c1cnc2ccc(-c3cc(Cl)c(O)c(Cl)c3)nc2c1N[C@H]1CC[C@H](CN(C)C)CC1
Procedure, shortened: as §1

ralimetinib = compound: CC(C)(C)Cn1c(N)nc2ccc(-c3[nH]c(C(C)(C)C)nc3-c3ccc(F)cc3)nc21 [ralimetinib]
Procedure, shortened: as §1

[2] = compound: CC(C)(O)CC(=O)NCCn1ccc2ncnc(Nc3ccc(Oc4cccc(C(F)(F)F)c4)c(Cl)c3)c21
Procedure, shortened: as §1

[3] = compound: CC(C)C1=C2N=C(C=C(N2N=C1)NCC3=CC=CC=C3)NCCCCCCN
Procedure, shortened: as §1

[4] = compound: CC(C)C[C@@H](C=O)NC(=O)[C@H](CC(C)C)NC(=O)[C@H](CC(C)C)NC(=O)OCc1ccccc1
Procedure, shortened: as §1

pinometostat = compound: CC(C)N(C[C@H]1O[C@@H](n2cnc3c(N)ncnc32)[C@H](O)[C@@H]1O)[C@H]1C[C@@H](CCc2nc3cc(C(C)(C)C)ccc3[nH]2)C1 [pinometostat]
Procedure, shortened: as §1

[5] = compound: CC1=C(C(CC(=O)N1)C2=CC=C(C=C2)C(F)(F)F)C(=O)NC3=C(C=C4C(=C3)C=NN4)F
Procedure, shortened: as §1

[6] = compound: CC1=C(C2=C(C=C1)C(=O)C3=CC=CC=C3N2CCCN)C
Procedure, shortened: as §1

[7] = compound: CC1=C(C=C(C=C1)NC(=O)C2=CC(=CC=C2)C(C)(C)C#N)NC3=CC4=C(C=C3)N=CN(C4=O)C
Procedure, shortened: as §1

[8] = compound: CC1=C(C=C(C=C1)NC(=O)C2=CC(=CC=C2)N(C)C)NC(=O)C3=CC=C(C=C3)O
Procedure, shortened: as §1

[9] = compound: CC1=CC=C(C=C1)SC2=C3C=C(SC3=CN=C2)C(=O)N
Procedure, shortened: as §1

[10] = compound: CC1=NC(=CC=C1)C2=C(N=C(N2)C(C)(C)C)C3=CC4=NC=CN=C4C=C3
Procedure, shortened: as §1

Nexturastat A = compound: CCCCN(Cc1ccc(C(=O)NO)cc1)C(=O)Nc1ccccc1 [Nexturastat A]
Procedure, shortened: as §1

vemurafenib = compound: CCCS(=O)(=O)Nc1ccc(F)c(C(=O)c2c[nH]c3ncc(-c4ccc(Cl)cc4)cc23)c1F [vemurafenib]
Procedure, shortened: as §1

[11] = compound: CCCS(=O)(=O)Nc1ccc(F)c(C(=O)c2c[nH]c3ncc(Cl)cc23)c1F
Procedure, shortened: as §1

[12] = compound: CCCc1cc(C)[nH]c(=O)c1CNC(=O)c1cc(-c2ccnc(N3CCN(C)CC3)c2)cc2c1cnn2C(C)C
Procedure, shortened: as §1

givinostat = compound: CCN(CC)Cc1ccc2cc(COC(=O)Nc3ccc(C(=O)NO)cc3)ccc2c1 [givinostat]
Procedure, shortened: as §1

barasertib = compound: CCN(CCCOc1ccc2c(Nc3cc(CC(=O)Nc4cccc(F)c4)[nH]n3)ncnc2c1)CCOP(=O)(O)O [barasertib]
Procedure, shortened: as §1

Measured: log2 fold change

STRBP (UniProt Q96SI9)
inactive: IRAK-1-4 Inhibitor I -0.131 | ibrutinib 0.071 | [1] -0.042 | ralimetinib 0.041 | [2] 0.017 | [3] 0.148 | [4] 0.066 | pinometostat 0.086 | [5] -0.017 | [6] 0.066 | [7] 0.038 | [8] -0.005 | [9] -0.103 | [10] -0.04 | Nexturastat A 0.095 | vemurafenib -0.155 | [11] -0.244 | [12] 0.096 | givinostat -0.031 | barasertib -0.106

TAF4 (UniProt O00268)
inactive: IRAK-1-4 Inhibitor I 0.07 | ibrutinib 0.12 | [1] -0.091 | ralimetinib -0.126 | [2] -0.118 | [3] -0.081 | [4] 0.039 | pinometostat 0.061 | [6] -0.019 | [7] 0.019 | [8] 0.022 | [9] 0.088 | [10] 0.024 | Nexturastat A -0.143 | vemurafenib -0.054 | [11] 0.027 | [12] 0.04 | givinostat 0.031 | barasertib 0.03

STRN3 (UniProt Q13033)
inactive: IRAK-1-4 Inhibitor I 0.003 | ibrutinib 0.027 | [1] -0.081 | ralimetinib -0.032 | [2] -0.08 | [3] -0.033 | [4] 0.025 | pinometostat -0.019 | [5] -0.011 | [6] 0.041 | [7] -0.002 | [8] -0.021 | [9] 0.05 | [10] 0.02 | Nexturastat A -0.018 | vemurafenib -0.019 | [11] 0.067 | [12] -0.036 | givinostat -0.048 | barasertib 0.028

SUGT1 (UniProt Q9Y2Z0)
inactive: IRAK-1-4 Inhibitor I 0.021 | ibrutinib -0.024 | [1] 0.02 | ralimetinib 0.05 | [2] 0.005 | [3] 0.001 | [4] -0.012 | pinometostat -0.063 | [5] -0.004 | [6] -0.027 | [7] -0.007 | [8] -0.016 | [9] 0.021 | [10] 0.025 | Nexturastat A -0.076 | vemurafenib 0.029 | [11] 0.028 | [12] -0.013 | givinostat -0.025 | barasertib 0.007

STMN3 (UniProt Q9NZ72)
inactive: IRAK-1-4 Inhibitor I 0.011 | ibrutinib -0.027 | [1] -0.016 | ralimetinib 0.115 | [2] -0.07 | [3] 0.067 | [4] 0.045 | pinometostat 0.019 | [5] 0.027 | [6] -0.127 | [7] 0.055 | [8] -0.092 | [9] -0.014 | [10] 0.048 | Nexturastat A 0.107 | vemurafenib 0.007 | [11] -0.064 | [12] -0.018 | givinostat 0 | barasertib 0.017

SURF1 (UniProt Q15526)
inactive: IRAK-1-4 Inhibitor I 0.021 | ibrutinib -0.028 | [1] 0.051 | ralimetinib -0.04 | [2] 0.036 | [3] -0.172 | [4] 0.028 | pinometostat -0.044 | [6] 0.098 | [7] 0.045 | [8] -0.008 | [9] -0.019 | [10] 0.087 | Nexturastat A -0.033 | vemurafenib 0.042 | [11] 0.124 | [12] -0.01 | givinostat -0.01 | barasertib 0.027

SYNJ2 (UniProt O15056)
inactive: IRAK-1-4 Inhibitor I -0.135 | ibrutinib 0.111 | [1] -0.096 | ralimetinib 0.053 | [2] -0.079 | [3] -0.152 | [4] 0.095 | pinometostat 0.071 | [5] 0.03 | [7] -0.195 | [8] -0.149 | [10] -0.028 | Nexturastat A 0.202 | vemurafenib -0.056 | [12] 0.146 | givinostat 0.13 | barasertib 0.095

STRADA (UniProt Q7RTN6)
inactive: IRAK-1-4 Inhibitor I 0.076 | ibrutinib 0.058 | [1] -0.116 | ralimetinib -0.05 | [2] -0.115 | [3] 0.093 | [4] 0.034 | pinometostat -0.029 | [5] 0.019 | [6] -0.047 | [7] 0.037 | [8] -0.012 | [9] -0.067 | [10] 0.006 | Nexturastat A -0.103 | vemurafenib -0.02 | [11] -0.021 | [12] -0.005 | givinostat 0.02 | barasertib -0.023

SYPL1 (UniProt Q16563)
inactive: IRAK-1-4 Inhibitor I 0.042 | ibrutinib 0.019 | [1] 0.006 | ralimetinib -0.081 | [2] 0.038 | [3] 0.025 | [4] -0.034 | pinometostat -0.011 | [5] -0.02 | [6] 0.018 | [7] -0.001 | [8] 0.001 | [9] -0.021 | [10] -0.022 | Nexturastat A 0 | vemurafenib 0.041 | [11] 0.004 | [12] -0.137 | givinostat -0.024 | barasertib -0.042

TANK (UniProt Q92844)
inactive: IRAK-1-4 Inhibitor I -0.035 | ibrutinib 0.087 | [1] -0.181 | ralimetinib 0.034 | [2] -0.024 | [3] 0.007 | [4] 0.127 | pinometostat -0.047 | [6] -0.053 | [7] -0.076 | [8] 0.059 | [9] 0.007 | [10] 0.028 | Nexturastat A -0.047 | vemurafenib -0.031 | [11] -0.018 | [12] 0.065 | givinostat 0.013 | barasertib 0.089

STX5 (UniProt Q13190)
inactive: IRAK-1-4 Inhibitor I -0.08 | ibrutinib -0.053 | [1] -0.009 | ralimetinib 0.046 | [2] -0.066 | [3] -0.023 | [4] -0.021 | pinometostat 0.096 | [5] -0.156 | [6] 0.145 | [7] -0.035 | [8] -0.005 | [9] 0.072 | [10] -0.019 | Nexturastat A 0.016 | vemurafenib 0.015 | [11] 0.139 | [12] 0.062 | givinostat 0.059 | barasertib 0.117

SUPT4H1 (UniProt P63272)
inactive: IRAK-1-4 Inhibitor I 0.004 | ibrutinib 0.093 | [1] 0.016 | ralimetinib 0.128 | [2] -0.049 | [3] -0.107 | [4] 0.011 | pinometostat -0.1 | [5] -0.012 | [6] -0.124 | [7] 0.026 | [8] -0.066 | [9] 0.042 | [10] 0.044 | Nexturastat A -0.031 | vemurafenib 0.036 | [11] 0.013 | [12] 0.223 | givinostat -0.008 | barasertib 0.035

STX7 (UniProt O15400)
inactive: IRAK-1-4 Inhibitor I -0.01 | ibrutinib 0.024 | [1] 0.011 | ralimetinib -0.039 | [2] 0.012 | [3] -0.087 | [4] -0.009 | pinometostat -0.109 | [6] 0.017 | [7] -0.003 | [8] 0.025 | [9] -0.002 | [10] 0.055 | Nexturastat A -0.023 | vemurafenib -0.036 | [11] 0 | [12] 0 | givinostat -0.002 | barasertib -0.02

SUPT6H (UniProt Q7KZ85)
inactive: IRAK-1-4 Inhibitor I -0.353 | ibrutinib -0.081 | [1] 0.166 | ralimetinib 0.042 | [2] -0.116 | [3] 0 | [4] -0.062 | pinometostat -0.162 | [5] 0.099 | [6] 0.315 | [7] -0.027 | [8] -0.186 | [9] 0.071 | [10] -0.026 | Nexturastat A -0.061 | vemurafenib 0.07 | [11] 0.044 | [12] 0.15 | givinostat 0.027 | barasertib -0.1

STRAP isoform 2 (UniProt Q9Y3F4)
inactive: IRAK-1-4 Inhibitor I -0.005 | ibrutinib 0.004 | [1] 0.018 | ralimetinib -0.019 | [2] 0.013 | [3] 0.033 | [4] 0.006 | pinometostat 0.002 | [5] -0.012 | [6] 0.015 | [7] 0.011 | [8] 0.013 | [9] 0.008 | [10] 0.001 | Nexturastat A -0.019 | vemurafenib -0.016 | [11] 0.007 | [12] -0.023 | givinostat -0.051 | barasertib -0.023

2 neighbouring records already listed, for reference:
SUPT4H1 (UniProt P63272)
inactive: IRAK-1-4 Inhibitor I 0.004 | ibrutinib 0.093 | [1] 0.016 | ralimetinib 0.128 | [2] -0.049 | [3] -0.107 | [4] 0.011 | pinometostat -0.1 | [5] -0.012 | [6] -0.124 | [7] 0.026 | [8] -0.066 | [9] 0.042 | [10] 0.044 | Nexturastat A -0.031 | vemurafenib 0.036 | [11] 0.013 | [12] 0.223 | givinostat -0.008 | barasertib 0.035

STX7 (UniProt O15400)
inactive: IRAK-1-4 Inhibitor I -0.01 | ibrutinib 0.024 | [1] 0.011 | ralimetinib -0.039 | [2] 0.012 | [3] -0.087 | [4] -0.009 | pinometostat -0.109 | [6] 0.017 | [7] -0.003 | [8] 0.025 | [9] -0.002 | [10] 0.055 | Nexturastat A -0.023 | vemurafenib -0.036 | [11] 0 | [12] 0 | givinostat -0.002 | barasertib -0.02

Further results

STRIP1 (UniProt Q5VSL9)
inactive: IRAK-1-4 Inhibitor I -0.005 | ibrutinib -0.067 | [1] 0.023 | ralimetinib 0.067 | [2] -0.094 | [3] -0.007 | [4] -0.004 | pinometostat -0.008 | [5] -0.008 | [6] 0.012 | [7] 0.076 | [8] -0.009 | [9] 0.06 | [10] -0.012 | Nexturastat A -0.023 | vemurafenib 0.066 | [11] 0.116 | [12] 0.129 | givinostat -0.087 | barasertib 0.02
